The text below walks through data of patent US20250197820.

Chains of the proteins cited; added tags and fusions are not shown. A line that says so, or that is headed by a name, gives the form on record, which may keep a tag or linker.
VEGF165 (Homo sapiens), one chain, as listed by the source: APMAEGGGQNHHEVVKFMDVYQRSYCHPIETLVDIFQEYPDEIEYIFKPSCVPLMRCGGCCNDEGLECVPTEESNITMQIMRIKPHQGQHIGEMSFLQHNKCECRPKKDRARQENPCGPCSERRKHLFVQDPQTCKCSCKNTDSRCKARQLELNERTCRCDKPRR

Residue numbers refer to the chain shown, from its start. For some of these results: A negative result means that nothing was seen under these conditions. For some of these results: The comparison behind a weaker result is the experiment's own reference, which may not be listed here. For some of these results: Where a protein sequence is shown, tags need not be part of it. For some of these results: The exact form of at least one protein or probe is not confirmed.

Data set [1] concerns the target T1, 2M polymerase (TGLLK T541G K592A) (Thermococcus gorgonarius) (UniProt P56689).
T1 sequence: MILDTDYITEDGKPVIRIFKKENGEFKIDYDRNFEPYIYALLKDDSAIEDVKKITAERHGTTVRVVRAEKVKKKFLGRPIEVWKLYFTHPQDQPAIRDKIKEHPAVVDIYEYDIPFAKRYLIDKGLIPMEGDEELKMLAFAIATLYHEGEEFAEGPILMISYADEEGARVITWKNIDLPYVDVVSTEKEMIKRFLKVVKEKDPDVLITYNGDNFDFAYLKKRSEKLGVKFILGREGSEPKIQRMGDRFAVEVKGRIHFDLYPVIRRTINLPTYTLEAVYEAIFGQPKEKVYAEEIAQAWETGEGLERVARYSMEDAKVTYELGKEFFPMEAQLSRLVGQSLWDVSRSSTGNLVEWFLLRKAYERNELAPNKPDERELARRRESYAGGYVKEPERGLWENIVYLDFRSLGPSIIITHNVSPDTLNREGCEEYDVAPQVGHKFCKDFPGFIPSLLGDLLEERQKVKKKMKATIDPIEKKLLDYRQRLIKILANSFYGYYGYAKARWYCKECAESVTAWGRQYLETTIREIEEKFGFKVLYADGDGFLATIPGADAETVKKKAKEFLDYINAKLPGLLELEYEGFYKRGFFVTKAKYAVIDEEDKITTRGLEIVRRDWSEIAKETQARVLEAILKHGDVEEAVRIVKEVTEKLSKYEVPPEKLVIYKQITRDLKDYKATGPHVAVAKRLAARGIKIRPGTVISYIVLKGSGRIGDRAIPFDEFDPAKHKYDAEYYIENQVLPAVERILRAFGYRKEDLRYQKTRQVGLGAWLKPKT
As to the kind of experiment: activity assay. The note with it: primer 2'-OMe, template DNA, purified recombinant protein.

Data set [2] has as its target T2, 2MN polymerase (2M D614N) (Thermococcus gorgonarius) (UniProt P56689).
T2 sequence: T1 sequence with D614N
Briefly: activity assay. The following applies: primer 2'-OMe, template DNA; small enhancement over 2M for 2'OMe-RNA, lesser for MOE-RNA; purified recombinant protein.

Data set [3] addresses T3, 3M polymerase (TGLLK T541G K592A K664R) (Thermococcus gorgonarius) (UniProt P56689).
T3 sequence: T1 sequence with K664R
Briefly: activity assay. The following applies: primer 2'-OMe, template DNA; virtually identical to 2M; purified recombinant protein.

In data set [4] the target is KOD DGLNK polymerase N210D,Y409G,A485L,D614N,E664K (Thermococcus kodakarensis) (UniProt P77933). As to the kind of experiment: activity assay. The following applies: primer 2'-OMe, template DNA; best with Mn2+ for 2'OMe-RNA; no efficient MOE-RNA synthesis; purified recombinant protein.
Another data set concerns VEGF165 (Homo sapiens). As to the kind of experiment: SPR. The following applies: U as 5-methyl-U, purified recombinant protein, synthetic backbone, variant of ARC224 2'OMe.

“CCCCTTATTAGCGTTTGCCA / CCCTCTTTCTTCCTCTTCCCGATGCTGGACCAGATAAGCACTTAGCCACGTAGTGCTGTTCGGTAATCGATCTGGCAAACGCTAATAAGGGG [2'OMe-RNA primer FD / TempNpure]”: the “activity on this sequence” value in data set [1] (full length +72 nt in <5 min (2'OMe-RNA), <20 min (MOE-RNA), Thermopol + MgSO4, 65 C) was “active”; in data set [2] it was “active”; in data set [3], “active”; in data set [4] it was “less active”.

In the case of “CCCCTTATTAGCGTTTGCCA / TCGATACTGGTACTAATGATTAACGATGTTGGCAAACGCTAATAAGGGGTCG [2'OMe-RNA primer FD / BFL770]”, the “activity on this sequence” value in data set [1] (steady-state single incorporation, NTP KM about 5-fold better for 2'OMe-ATP and MOE-ATP than ATP, 6 mM Mg2+, 50 C, label: 5' 6-FAM primer) was “active”.

For “CGATATGCAGTTTGAGAAGTCGCGCATTCG [ARC224 2'OMe-m5U]”, in the data set on VEGF165 (Homo sapiens) (all 2'-OMe, reduced affinity vs 2'OMe-U), the binding result is on record as “binds more weakly”.

Regarding “CGATATGCAGTTTGAGAAGTCGCGCATTCG [ARC224 all-MOE]”, in the data set with VEGF165 (Homo sapiens) (all 2'-O-MOE, lost virtually all binding), the binding result is recorded as “no binding”.
